Test results from PMC8929021.

Chains of the proteins cited; added tags and fusions are not shown.
UniProt P12004: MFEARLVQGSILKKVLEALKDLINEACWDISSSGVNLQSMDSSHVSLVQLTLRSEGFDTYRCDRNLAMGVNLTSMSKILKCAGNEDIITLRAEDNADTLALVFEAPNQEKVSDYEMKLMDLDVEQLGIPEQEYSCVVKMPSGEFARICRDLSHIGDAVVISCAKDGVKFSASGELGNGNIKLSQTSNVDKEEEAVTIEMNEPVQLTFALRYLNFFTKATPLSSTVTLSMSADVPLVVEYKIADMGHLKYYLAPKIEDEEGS
UniProt P55081: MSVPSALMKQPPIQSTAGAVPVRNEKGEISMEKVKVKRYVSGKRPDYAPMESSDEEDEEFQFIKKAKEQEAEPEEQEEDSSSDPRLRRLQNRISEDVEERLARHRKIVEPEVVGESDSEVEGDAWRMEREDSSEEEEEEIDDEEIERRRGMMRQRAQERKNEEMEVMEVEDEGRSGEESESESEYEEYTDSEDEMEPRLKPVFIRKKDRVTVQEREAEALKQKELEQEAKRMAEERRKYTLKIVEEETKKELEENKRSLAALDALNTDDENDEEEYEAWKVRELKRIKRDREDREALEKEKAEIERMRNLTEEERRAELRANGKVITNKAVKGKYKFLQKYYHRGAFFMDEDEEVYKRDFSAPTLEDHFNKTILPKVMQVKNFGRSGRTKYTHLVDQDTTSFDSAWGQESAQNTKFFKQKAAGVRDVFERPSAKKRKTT
UniProt Q8WTT2: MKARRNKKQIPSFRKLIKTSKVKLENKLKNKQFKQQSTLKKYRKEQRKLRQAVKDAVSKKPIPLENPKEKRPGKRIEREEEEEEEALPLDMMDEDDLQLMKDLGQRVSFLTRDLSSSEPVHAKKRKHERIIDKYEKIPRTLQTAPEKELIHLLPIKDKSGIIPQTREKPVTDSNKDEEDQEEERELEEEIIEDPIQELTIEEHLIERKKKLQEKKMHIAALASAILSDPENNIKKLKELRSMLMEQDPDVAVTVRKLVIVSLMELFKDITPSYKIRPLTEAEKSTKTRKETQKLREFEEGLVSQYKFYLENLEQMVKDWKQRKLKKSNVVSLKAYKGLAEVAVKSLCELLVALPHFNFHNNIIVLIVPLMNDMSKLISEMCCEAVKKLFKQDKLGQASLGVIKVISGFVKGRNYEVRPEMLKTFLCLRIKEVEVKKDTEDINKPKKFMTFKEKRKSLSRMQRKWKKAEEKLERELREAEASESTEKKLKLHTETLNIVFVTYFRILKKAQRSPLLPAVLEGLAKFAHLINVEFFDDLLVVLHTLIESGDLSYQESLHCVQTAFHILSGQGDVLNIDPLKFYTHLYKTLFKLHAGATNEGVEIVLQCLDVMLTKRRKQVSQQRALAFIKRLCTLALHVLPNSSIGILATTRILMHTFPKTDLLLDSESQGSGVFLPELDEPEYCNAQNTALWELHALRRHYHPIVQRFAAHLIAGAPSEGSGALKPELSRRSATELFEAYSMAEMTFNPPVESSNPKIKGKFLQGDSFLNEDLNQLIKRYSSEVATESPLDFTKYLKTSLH
UniProt P09104: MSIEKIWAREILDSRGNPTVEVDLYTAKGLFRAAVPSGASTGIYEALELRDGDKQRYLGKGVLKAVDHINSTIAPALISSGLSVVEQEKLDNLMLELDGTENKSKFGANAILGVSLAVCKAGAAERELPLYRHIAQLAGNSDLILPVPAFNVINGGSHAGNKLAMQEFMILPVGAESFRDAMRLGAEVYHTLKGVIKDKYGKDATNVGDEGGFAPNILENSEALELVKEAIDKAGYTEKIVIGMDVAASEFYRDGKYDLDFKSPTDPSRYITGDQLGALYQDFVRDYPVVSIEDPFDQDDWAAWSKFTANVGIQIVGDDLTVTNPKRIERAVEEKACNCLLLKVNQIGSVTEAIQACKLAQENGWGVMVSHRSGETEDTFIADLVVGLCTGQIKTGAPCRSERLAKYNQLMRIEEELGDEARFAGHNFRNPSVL
UniProt Q02880: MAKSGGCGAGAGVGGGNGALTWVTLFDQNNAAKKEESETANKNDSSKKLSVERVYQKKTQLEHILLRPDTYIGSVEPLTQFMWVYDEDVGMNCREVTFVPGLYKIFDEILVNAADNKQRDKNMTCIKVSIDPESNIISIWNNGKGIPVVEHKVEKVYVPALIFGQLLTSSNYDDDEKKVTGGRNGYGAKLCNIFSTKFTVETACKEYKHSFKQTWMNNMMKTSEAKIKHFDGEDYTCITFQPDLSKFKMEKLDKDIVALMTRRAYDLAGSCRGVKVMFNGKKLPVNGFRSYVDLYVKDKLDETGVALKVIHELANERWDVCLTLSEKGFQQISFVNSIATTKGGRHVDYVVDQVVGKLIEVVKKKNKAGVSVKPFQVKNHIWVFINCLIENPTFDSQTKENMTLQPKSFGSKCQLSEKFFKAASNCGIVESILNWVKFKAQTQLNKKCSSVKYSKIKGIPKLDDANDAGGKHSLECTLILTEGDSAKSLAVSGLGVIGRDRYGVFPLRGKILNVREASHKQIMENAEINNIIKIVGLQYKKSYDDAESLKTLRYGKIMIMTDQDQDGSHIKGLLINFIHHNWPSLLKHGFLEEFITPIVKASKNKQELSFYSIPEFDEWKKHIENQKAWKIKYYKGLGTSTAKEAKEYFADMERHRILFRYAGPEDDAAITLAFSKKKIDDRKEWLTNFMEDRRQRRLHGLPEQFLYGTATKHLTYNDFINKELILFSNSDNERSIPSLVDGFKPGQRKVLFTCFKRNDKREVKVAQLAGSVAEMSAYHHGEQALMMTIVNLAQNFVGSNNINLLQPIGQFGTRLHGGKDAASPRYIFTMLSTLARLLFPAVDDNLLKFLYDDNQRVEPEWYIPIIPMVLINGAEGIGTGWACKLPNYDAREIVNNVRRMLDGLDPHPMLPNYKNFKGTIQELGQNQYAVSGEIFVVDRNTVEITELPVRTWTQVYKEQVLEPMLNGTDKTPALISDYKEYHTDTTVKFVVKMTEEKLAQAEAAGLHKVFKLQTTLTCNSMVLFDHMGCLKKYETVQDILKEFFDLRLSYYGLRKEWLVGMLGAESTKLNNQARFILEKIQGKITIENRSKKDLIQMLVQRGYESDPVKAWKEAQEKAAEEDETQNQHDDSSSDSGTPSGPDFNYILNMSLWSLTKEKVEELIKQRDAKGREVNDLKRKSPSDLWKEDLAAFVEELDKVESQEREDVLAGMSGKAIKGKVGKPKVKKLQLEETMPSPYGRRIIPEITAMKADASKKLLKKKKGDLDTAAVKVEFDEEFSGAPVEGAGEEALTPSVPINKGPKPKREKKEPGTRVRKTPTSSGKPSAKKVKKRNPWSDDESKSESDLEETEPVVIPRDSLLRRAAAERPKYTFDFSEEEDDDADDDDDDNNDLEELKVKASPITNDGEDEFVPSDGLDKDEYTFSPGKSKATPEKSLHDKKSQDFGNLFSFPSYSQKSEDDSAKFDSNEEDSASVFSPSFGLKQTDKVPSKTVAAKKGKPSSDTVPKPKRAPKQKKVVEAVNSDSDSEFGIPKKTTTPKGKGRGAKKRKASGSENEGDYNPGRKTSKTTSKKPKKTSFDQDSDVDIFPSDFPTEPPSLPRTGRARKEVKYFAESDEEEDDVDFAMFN
UniProt Q13123: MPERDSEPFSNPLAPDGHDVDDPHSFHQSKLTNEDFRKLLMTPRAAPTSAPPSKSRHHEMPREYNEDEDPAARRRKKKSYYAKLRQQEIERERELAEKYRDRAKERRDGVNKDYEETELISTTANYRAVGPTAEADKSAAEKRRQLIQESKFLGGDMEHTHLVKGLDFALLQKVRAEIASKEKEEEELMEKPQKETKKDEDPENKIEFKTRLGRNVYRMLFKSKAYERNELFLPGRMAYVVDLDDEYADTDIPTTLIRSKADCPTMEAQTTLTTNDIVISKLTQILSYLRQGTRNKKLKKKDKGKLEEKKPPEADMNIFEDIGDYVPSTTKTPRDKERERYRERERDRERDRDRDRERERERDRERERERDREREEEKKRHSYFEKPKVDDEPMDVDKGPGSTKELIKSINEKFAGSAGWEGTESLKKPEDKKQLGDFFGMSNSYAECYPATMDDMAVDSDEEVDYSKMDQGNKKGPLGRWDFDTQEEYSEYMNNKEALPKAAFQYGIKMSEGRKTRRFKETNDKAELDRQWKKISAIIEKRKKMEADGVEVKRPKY
UniProt P15927: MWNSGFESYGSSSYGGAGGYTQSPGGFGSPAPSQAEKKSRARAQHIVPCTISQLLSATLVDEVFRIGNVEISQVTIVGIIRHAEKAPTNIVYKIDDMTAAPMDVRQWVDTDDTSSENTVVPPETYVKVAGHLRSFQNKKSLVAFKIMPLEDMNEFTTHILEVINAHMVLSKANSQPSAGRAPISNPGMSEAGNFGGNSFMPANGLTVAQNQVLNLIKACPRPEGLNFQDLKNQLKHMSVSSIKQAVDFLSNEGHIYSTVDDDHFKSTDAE
UniProt P27694: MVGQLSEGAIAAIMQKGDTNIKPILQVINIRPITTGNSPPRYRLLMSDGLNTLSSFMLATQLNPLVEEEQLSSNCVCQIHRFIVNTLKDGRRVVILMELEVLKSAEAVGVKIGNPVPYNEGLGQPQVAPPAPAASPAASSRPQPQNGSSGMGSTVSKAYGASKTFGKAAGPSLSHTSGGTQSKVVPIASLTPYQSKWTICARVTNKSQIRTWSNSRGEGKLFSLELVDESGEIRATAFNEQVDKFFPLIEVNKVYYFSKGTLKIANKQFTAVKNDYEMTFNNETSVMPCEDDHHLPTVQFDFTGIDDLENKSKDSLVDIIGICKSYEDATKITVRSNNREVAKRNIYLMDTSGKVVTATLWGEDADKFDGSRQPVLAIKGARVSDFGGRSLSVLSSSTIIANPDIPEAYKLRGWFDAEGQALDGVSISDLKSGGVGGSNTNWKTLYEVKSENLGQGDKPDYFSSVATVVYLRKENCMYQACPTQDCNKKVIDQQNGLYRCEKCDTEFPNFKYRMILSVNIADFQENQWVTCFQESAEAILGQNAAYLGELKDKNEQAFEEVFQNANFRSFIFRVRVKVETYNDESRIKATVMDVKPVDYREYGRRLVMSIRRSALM

T1: KIN (Kin17) fused to BirA* (human) (UniProt O60870)
T1 sequence: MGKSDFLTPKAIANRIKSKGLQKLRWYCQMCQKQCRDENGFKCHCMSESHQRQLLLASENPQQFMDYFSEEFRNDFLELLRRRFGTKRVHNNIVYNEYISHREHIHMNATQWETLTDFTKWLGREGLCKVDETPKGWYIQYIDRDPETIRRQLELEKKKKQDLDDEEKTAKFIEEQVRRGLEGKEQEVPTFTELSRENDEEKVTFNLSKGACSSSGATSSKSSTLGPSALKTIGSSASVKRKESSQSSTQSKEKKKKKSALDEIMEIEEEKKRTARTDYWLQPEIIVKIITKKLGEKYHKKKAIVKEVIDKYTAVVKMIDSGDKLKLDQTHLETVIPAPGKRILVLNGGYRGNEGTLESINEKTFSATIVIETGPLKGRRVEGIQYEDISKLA


Biological target: T1, KIN (Kin17) fused to BirA* (human)
Test: proximity labelling; BioID-MS: BirA* fusion bait in stable Flp-In T-Rex 293 or HeLa cells, tetracycline 1 μg/mL and biotin 75 μM for 24 h; lysis in modified RIPA buffer, streptavidin-agarose beads 4 °C 3 h, on-bead trypsin digestion, LC-MS/MS; GFP-NLS as control, SAINTexpress FDR threshold 0.1; for KIN also in HeLa cells synchronised by double thymidine block (S, G2/M, G1) and 2 or 24 h after 10 Gy gamma irradiation

Row | Molecule | binding
1 | PCNA (from UniProt P12004 1-261) | no binding
2 | MFAP1 (from UniProt P55081 1-439) | binds
3 | PRPF4B | binds
4 | DNA polymerase α (human (endogenous in Flp-In T-Rex HeLa)) | no binding
5 | NOC3L (from UniProt Q8WTT2 1-800) | binds
6 | ATRX (from UniProt P46100 1-2492) | binds
7 | enolase ENO2 (from UniProt P09104 1-434) | binds
8 | topoisomerase TOP2B (from UniProt Q02880 1-1626) | binds
9 | IK (from UniProt Q13123 1-557) | binds
10 | RPA2 (from UniProt P15927 1-270) | no binding
11 | RPA1 (from UniProt P27694 1-616) | no binding
12 | THRAP3 (protein, UniProt Q9Y2W1 1-955) MSKTNKSKSGSRSSRSRSASRSRSRSFSKSRSRSRSLSRSRKRRLSSRSRSRSYSPAHNRERNHPRVYQNRDFRGHNRGYRRPYYFRGRNRGFYPWGQYNRGGYGNYRSNWQNYRQAYSPRRGRSRSRSPKRRSPSPRSRSHSRNSDKSSSDRSRRSSSSRSSSNHSRVESSKRKSAKEKKSSSKDSRPSQAAGDNQGDEAKEQTFSGGTSQDTKASESSKPWPDATYGTGSASRASAVSELSPRERSPALKSPLQSVVVRRRSPRPSPVPKPSPPLSSTSQMGSTLPSGAGYQSGTHQGQFDHGSGSLSPSKKSPVGKSPPSTGSTYGSSQKEESAASGGAAYTKRYLEEQKTENGKDKEQKQTNTDKEKIKEKGSFSDTGLGDGKMKSDSFAPKTDSEKPFRGSQSPKRYKLRDDFEKKMADFHKEEMDDQDKDKAKGRKESEFDDEPKFMSKVIGANKNQEEEKSGKWEGLVYAPPGKEKQRKTEELEEESFPERSKKEDRGKRSEGGHRGFVPEKNFRVTAYKAVQEKSSSPPPRKTSESRDKLGAKGDFPTGKSSFSITREAQVNVRMDSFDEDLARPSGLLAQERKLCRDLVHSNKKEQEFRSIFQHIQSAQSQRSPSELFAQHIVTIVHHVKEHHFGSSGMTLHERFTKYLKRGTEQEAAKNKKSPEIHRRIDISPSTFRKHGLAHDEMKSPREPGYKAEGKYKDDPVDLRLDIERRKKHKERDLKRGKSRESVDSRDSSHSRERSAEKTEKTHKGSKKQKKHRRARDRSRSSSSSSQSSHSYKAEEYTEETEEREESTTGFDKSRLGTKDFVGPSERGGGRARGTFQFRARGRGWGRGNYSGNNNNNSNNDFQKRNREEEWDPEYTPKSKKYYLHDDREGEGSDKWVSRGRGRGAFPRGRGRFMFRKSSTSPKWAHDKFSGEEGEIEDDESGTENREEKDNIQPTTE | binds
13 | BUD13 (protein, UniProt Q9BRD0 1-619) MAAAPPLSKAEYLKRYLSGADAGVDRGSESGRKRRKKRPKPGGAGGKGMRIVDDDVSWTAISTTKLEKEEEEDDGDLPVVAEFVDERPEEVKQMEAFRSSAKWKLLGGHNEDLPSNRHFRHDTPDSSPRRVRHGTPDPSPRKDRHDTPDPSPRRARHDTPDPSPLRGARHDSDTSPPRRIRHDSSDTSPPRRARHDSPDPSPPRRPQHNSSGASPRRVRHDSPDPSPPRRARHGSSDISSPRRVHNNSPDTSRRTLGSSDTQQLRRARHDSPDLAPNVTYSLPRTKSGKAPERASSKTSPHWKESGASHLSFPKNSKYEYDPDISPPRKKQAKSHFGDKKQLDSKGDCQKATDSDLSSPRHKQSPGHQDSDSDLSPPRNRPRHRSSDSDLSPPRRRQRTKSSDSDLSPPRRSQPPGKKAAHMYSGAKTGLVLTDIQREQQELKEQDQETMAFEAEFQYAETVFRDKSGRKRNLKLERLEQRRKAEKDSERDELYAQWGKGLAQSRQQQQNVEDAMKEMQKPLARYIDDEDLDRMLREQEREGDPMANFIKKNKAKENKNKKVRPRYSGPAPPPNRFNIWPGYRWDGVDRSNGFEQKRFARLASKKAVEELAYKWSVEDM | binds
14 | RBMX2/Snu17 (protein, UniProt Q9Y388 1-322) MNPLTKVKLINELNEREVQLGVADKVSWHSEYKDSAWIFLGGLPYELTEGDIICVFSQYGEIVNINLVRDKKTGKSKGFCFLCYEDQRSTILAVDNFNGIKIKGRTIRVDHVSNYRAPKDSEEIDDVTRQLQEKGCGARTPSPSLSESSEDEKPTKKHKKDKKEKKKKKKEKEKADREVQAEQPSSSSPRRKTVKEKDDTGPKKHSSKNSERAQKSEPREGQKLPKSRTAYSGGAEDLERELKKEKPKHEHKSSSRREAREEKTRIRDRGRSSDAHSSWYNGRSEGRSYRSRSRSRDKSHRHKRARRSRERESSNPSDRWRH | binds
15 | CEBZ (protein, UniProt Q03701 1-1054) MAAVKEPLEFHAKRPWRPEEAVEDPDEEDEDNTSEAENGFSLEEVLRLGGTKQDYLMLATLDENEEVIDGGKKGAIDDLQQGELEAFIQNLNLAKYTKASLVEEDEPAEKENSSKKEVKIPKINNKNTAESQRTSVNKVKNKNRPEPHSDENGSTTPKVKKDKQNIFEFFERQTLLLRPGGKWYDLEYSNEYSLKPQPQDVVSKYKTLAQKLYQHEINLFKSKTNSQKGASSTWMKAIVSSGTLGDRMAAMILLIQDDAVHTLQFVETLVNLVKKKGSKQQCLMALDTFKELLITDLLPDNRKLRIFSQRPFDKLEQLSSGNKDSRDRRLILWYFEHQLKHLVAEFVQVLETLSHDTLVTTKTRALTVAHELLCNKPEEEKALLVQVVNKLGDPQNRIATKASHLLETLLCKHPNMKGVVSGEVERLLFRSNISSKAQYYAICFLNQMALSHEESELANKLITVYFCFFRTCVKKKDVESKMLSALLTGVNRAYPYSQTGDDKVREQIDTLFKVLHIVNFNTSVQALMLLFQVMNSQQTISDRYYTALYRKMLDPGLMTCSKQAMFLNLVYKSLKADIVLRRVKAFVKRLLQVTCQQMPPFICGALYLVSEILKAKPGLRSQLDDHPESDDEENFIDANDDEDMEKFTDADKETEIVKKLETEETVPETDVETKKPEVASWVHFDNLKGGKQLNKYDPFSRNPLFCGAENTSLWELKKLSVHFHPSVALFAKTILQGNYIQYSGDPLQDFTLMRFLDRFVYRNPKPHKGKENTDSVVMQPKRKHFIKDIRHLPVNSKEFLAKEESQIPVDEVFFHRYYKKVAVKEKQKRDADEESIEDVDDEEFEELIDTFEDDNCFSSGKDDMDFAGNVKKRTKGAKDNTLDEDSEGSDDELGNLDDDEVSLGSMDDEEFAEVDEDGGTFMDVLDDESESVPELEVHSKVSTKKSKRKGTDDFDFAGSFQGPRKKKRNLNDSSLFVSAEEFGHLLDENMGSKFDNIGMNAMANKDNASLKQLRWEAERDDWLHNRDAKSIIKKKKHFKKKRIKTTQKTKKQRK | binds
16 | methyltransferase METTL22 (enzyme, UniProt Q9BUU2 1-404) MVQLAPAAAMDEVTFRSDTVLSDVHLYTPNHRHLMVRLNSVGQPVFLSQFKLLWSQDSWTDSGAKGGSHRDVHTKEPPSAETGSTGSPPGSGHGNEGFSLQAGTDTTGQEVAEAQLDEDGDLDVVRRPRAASDSNPAGPLRDKVHPMILAQEEDDVLGEEAQGSPHDIIRIEHTMATPLEDVGKQVWRGALLLADYILFRQDLFRGCTALELGAGTGLASIIAATMARTVYCTDVGADLLSMCQRNIALNSHLAATGGGIVRVKELDWLKDDLCTDPKVPFSWSQEEISDLYDHTTILFAAEVFYDDDLTDAVFKTLSRLAHRLKNACTAILSVEKRLNFTLRHLDVTCEAYDHFRSCLHALEQLADGKLRFVVEPVEASFPQLLVYERLQQLELWKIIAEPVT | binds
17 | PRPF38A (protein, UniProt Q8NAV1 1-312) MANRTVKDAHSIHGTNPQYLVEKIIRTRIYESKYWKEECFGLTAELVVDKAMELRFVGGVYGGNIKPTPFLCLTLKMLQIQPEKDIIVEFIKNEDFKYVRMLGALYMRLTGTAIDCYKYLEPLYNDYRKIKSQNRNGEFELMHVDEFIDELLHSERVCDIILPRLQKRYVLEEAEQLEPRVSALEEDMDDVESSEEEEEEDEKLERVPSPDHRRRSYRDLDKPRRSPTLRYRRSRSRSPRRRSRSPKRRSPSPRRERHRSKSPRRHRSRSRDRRHRSRSKSPGHHRSHRHRSHSKSPERSKKSHKKSRRGNE | binds
18 | SNIP1/Pml1 (protein, UniProt Q8TAD8 1-396) MKAVKSERERGSRRRHRDGDVVLPAGVVVKQERLSPEVAPPAHRRPDHSGGSPSPPTSEPARSGHRGNRARGVSRSPPKKKNKASGRRSKSPRSKRNRSPHHSTVKVKQEREDHPRRGREDRQHREPSEQEHRRARNSDRDRHRGHSHQRRTSNERPGSGQGQGRDRDTQNLQAQEEEREFYNARRREHRQRNDVGGGGSESQELVPRPGGNNKEKEVPAKEKPSFELSGALLEDTNTFRGVVIKYSEPPEARIPKKRWRLYPFKNDEVLPVMYIHRQSAYLLGRHRRIADIPIDHPSCSKQHAVFQYRLVEYTRADGTVGRRVKPYIIDLGSGNGTFLNNKRIEPQRYYELKEKDVLKFGFSSREYVLLHESSDTSEIDRKDDEDEEEEEEVSDS | no binding

These are yes or no findings as the source states them, for the method shown. In cells and extracts the contact can be indirect. A yes stands for co-enrichment or nearness to the bait. Other partners may have been found. No binding means not detected with the bait. Where a sequence is shown, tags or fusion partners need not be part of it.
